In the data set the target is T1, FASTKD4 (purified) (Homo sapiens) (UniProt Q969Z0).
T1 sequence (looked up): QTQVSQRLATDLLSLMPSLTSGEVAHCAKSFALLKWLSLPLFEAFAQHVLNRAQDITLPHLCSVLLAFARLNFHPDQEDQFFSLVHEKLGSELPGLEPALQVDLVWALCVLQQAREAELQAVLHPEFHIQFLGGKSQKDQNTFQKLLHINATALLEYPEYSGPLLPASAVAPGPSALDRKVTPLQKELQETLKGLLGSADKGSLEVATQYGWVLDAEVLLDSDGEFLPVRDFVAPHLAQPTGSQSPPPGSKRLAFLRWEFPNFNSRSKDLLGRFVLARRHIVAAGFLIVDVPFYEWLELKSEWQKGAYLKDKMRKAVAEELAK
Put plainly: EMSA. The conditions noted are these: EMSA: 10 mM HEPES pH 8.0, 1 mM EDTA, 50 mM KCl, 2 mM DTT, 0.1 mg/ml fatty acid-free BSA, 0.02% Tween-20, room temperature 30 min, 6% PAGE in TAE; recombinant protein; residues 309-631; protein details: MBP (modified pET-MBP, Ni-column purified); label: 5' FAM. (In EMSA bound probe runs differently from free probe, usually more slowly.)

For at least one entry, the source does not settle the construct or the ends of the probe. At least one verdict was read from the data and is not stated in words by the source. Tags and fusion partners may be left off the protein sequences shown.

Take “CAAAAAGGAUUAGACUGAACCGAAUAAAAAAAAAAAAAAAAAAAAAAAAA [ND3-polyA-RNA]”: the binding result was “binds”.

For the origin of these results see paper PMC11879112.
